# According to PubChem BioAssay AID2685 (National Center for Advancing Translational Sciences (NCATS), 2010):
# Hit rate of the full screen: of about 320,000 compounds, about 2,100 (0.66%) were called active. Inconclusive means that the source gave no clear call. Such entries were picked first, then a sample of the others. Calls follow the shape of the dose curve; as a rule, active = well fitted inhibition curve with a large enough effect in the signal ratio, with a control signal flat (not every such curve was filed as active); inconclusive = small, poorly fitted or top-dose-only effect, or effect the other way, or a change in a side signal; inactive = flat fitted curve, though single readings scatter; the % refers to the signal ratio. Potencies beside an inconclusive call are fits to weak or partial responses and may not hold up.
# Experiment: qHTS Assay for Lipid Storage Modulators in Drosophila S3 Cells
# Settings: BODIPY lipid droplet fluorescence, 18-24 h, cells fed with added oleic acid; lipid storage change, negative = inhibition: at 46.1 µM (top of the series) unless noted
# How it was run: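 Drosophila S3 cells loaded with oleic acid (400 uM, as added) and compounds at several concentrations; lipid droplets imaged by 488-nm laser-scanning cytometry, 500–530 nm intensity and object ratio to cell channel. Percent activity normalized to 20 uM Triacsin C.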
# % is scaled to controls: 0 for no effect and ±100 for the full control effect; potency is read from the fitted curve at half-maximal effect.
Compound,Potency,"lipid storage change, negative = inhibition"
c1ccc(-c2onc(-c3ccco3)c2-c2ccc3[nH]ccc3c2)cc1,"inconclusive: 29.1 µM [falling, single point]",
O=C1Nc2ccc(C(F)(F)F)cc2N2CCCC12 (configuration not stated),,inconclusive: -0.469%
CCNC(=O)/C(C#N)=C/c1c(N2CCN(Cc3ccc4c(c3)OCO4)CC2)nc2c(C)cccn2c1=O,"inconclusive: 0.164 µM [activator, full curve, poor fit]",
C/C(=N\NC(=O)c1cccc(N2CCCC2=O)c1)c1ccc(N)cc1,,inconclusive: -9.19%
CCOc1cc(C2C(C(=O)c3ccc(C)cc3)=C(C(=O)OC)Nc3nnnn32)ccc1O (configuration not stated),,inconclusive: 12.9%
O=C(c1c(F)cccc1F)N1CCCC(c2nc(-c3ccc(Cl)cc3)no2)C1 (configuration not stated),,inconclusive: -50.7%
CC1CCN(CCNC(=O)C2CCCN(S(=O)(=O)c3cccc4nsnc34)C2)CC1 (configuration not stated),,inconclusive: -48.1%
O=[N+]([O-])c1ccccc1NCCOc1ccccc1,,inconclusive: 44.4%
COc1ccccc1C(=O)Nc1nnc(-c2ccco2)s1,"inconclusive: 6.51 µM [activator, partial curve, poor fit]",
O=C(Cc1ccccc1)NCC1CCCO1 (configuration not stated),"inconclusive: 7.31 µM [falling, single point]",
O=c1oc2c(O)cccc2cc1-c1nc2ccccc2[nH]1,"inconclusive: 6.51 µM [falling, single point]",
CCC1(CC)NC(=O)N(CC(=O)Nc2ccc(S(=O)(=O)N3CCOCC3)cc2)C1=O,"inconclusive: 0.651 µM [activator, full curve, poor fit]",
Cc1csc2nc(SCC(=O)Nc3ccccc3F)[nH]c(=O)c12,,inconclusive: 5.78%
COc1ccc(/C=C(/NC(=O)c2ccccc2)c2nc3ccccc3[nH]2)cc1OC,,inconclusive: 268%
Cc1ccc2nc3c(cc2c1)c(NC(=O)C1CCCO1)nn3CC(C)C (configuration not stated),"inconclusive: 1.3 µM [activator, partial curve]",
Cc1cc(C)c(C)c(S(=O)(=O)N2CCN(c3ccccn3)CC2)c1C,,inconclusive: 16.3%
O=C(/C=C/c1cccs1)N1CCN(c2ccccc2)CC1,"inconclusive: 1.84 µM [falling, partial curve, poor fit]",
COc1ccc(CCNC(=S)NCc2ccc(Cl)c(Cl)c2)cc1OC,,inconclusive: -8.44%
O=C(O)CSCC(=O)c1ccccc1,"inconclusive: 0.103 µM [activator, full curve, poor fit]",
CCN1C(=O)/C(=C/C=C2/SCCN2C)SC1=S,,inconclusive: -18.5%
CN(C)Cc1c(O)ccc2c(-c3ccccc3)cc(=O)oc12,,inconclusive: 8.28%
CCOC(=O)C1CCCN(c2c(NCCCN(CC)c3cccc(C)c3)c(=O)c2=O)C1 (configuration not stated),,inconclusive: 18.3%
Nc1ccc(C(=O)OCC(=O)N2CCN(C(=O)c3ccco3)CC2)cc1[N+](=O)[O-],,inconclusive: -4.92%
COCCOC(=O)c1c(NC(=O)CNCc2ccco2)sc(C(N)=O)c1C,,inconclusive: -3.51%

Compound,Potency,"lipid storage change, negative = inhibition"
O=c1[nH]c(C2CCN(S(=O)(=O)c3ccc(C(F)(F)F)cc3)CC2)nc2c1nnn2Cc1ccccc1,"inconclusive: 25.9 µM [falling, single point]",
CCOc1ccc(C(CC(=O)O)NC(=O)c2ccco2)cc1OC (configuration not stated),"inconclusive: 29.1 µM [falling, single point]",
N#CCCN(C(=O)COC(=O)c1cccc(S(=O)(=O)N2CCCC2)c1)c1ccc(F)cc1,,inconclusive: -10.6%
Cc1cc(N2CCN(c3nc4ccccc4s3)CC2)n2ncnc2n1,,inconclusive: 3.79%
C=CCOc1ccc(C2/C(=C(\O)c3ccc(F)cc3)C(=O)C(=O)N2CCCN(C)C)cc1 (configuration not stated),,inconclusive: -56.1%
COc1ccccc1N1CCN(CC(O)COc2ccc(S(=O)(=O)N3CCOCC3)cc2)CC1 (configuration not stated),,inconclusive: -35.9%
COCCCN1C(=O)C(O)=C(C(=O)c2ccco2)C1c1cccc(Br)c1 (configuration not stated),,inconclusive: 10.9%
COc1cccc(/C=C2\SC(=S)N(CCC(=O)N3CCCCC3CCO)C2=O)c1 (configuration not stated),active: 8.2 µM,
CCCn1c(=N)n(CC(=O)c2cccs2)c2ccccc21,,inconclusive: 26.4%
O=C(c1ccc(S(=O)(=O)N2CCCCC2)cc1)N1CCN=C1SCc1cccnc1,"inconclusive: 1.3 µM [activator, full curve, poor fit]",
Cc1cccc(CC(=O)NCC2CCCCC2)c1,"inconclusive: 3.26 µM [activator, single point]",
Cc1cc(C(=O)N/N=C/c2c(C)[nH]c3ccccc23)n[nH]1,"inconclusive: 0.116 µM [falling, full curve, poor fit]",
CCOc1ccc(NC(=O)CS(=O)CC(=O)NC2CCCc3ccccc32)cc1 (configuration not stated),,inconclusive: 17.5%
Cc1ccc(C(=O)NCC(=O)OCC(=O)N(CC(C)C)c2c(N)n(Cc3ccccc3)c(=O)[nH]c2=O)cc1C,,inconclusive
O=C(c1cnn(-c2cccc(F)c2)c1)c1ccccc1O,,inconclusive: 20.8%
Cc1c(C(=O)C(=O)NCCC2=CCCCC2)c2ccccc2n1C,,inconclusive: 32%
CCOc1ccccc1NC=C1C(=O)OC(C)(C)OC1=O,,inconclusive: -34.2%
COc1ccc(-c2nsc(SCC(=O)NCc3ccc4c(c3)OCO4)n2)cc1,,inconclusive: 15.4%
NS(=O)(=O)c1ccc(CCNC(=O)COC(=O)Cc2c(F)cccc2Cl)cc1,"inconclusive: 29.1 µM [falling, single point]",
COc1cccc(CNC(=O)c2ccccc2SCC(=O)N2CCCC2)c1,,inconclusive: 17.6%
O=S(=O)(c1ccc2ccccc2c1)N1CCCOC1,"inconclusive: 4.11 µM [falling, full curve, poor fit]",
Cc1cc(Cl)ccc1OCC(=O)OCC(=O)NC1CCS(=O)(=O)C1 (configuration not stated),,inconclusive: 5.54%
COc1cc(SC)ccc1C(=O)N1CCCc2ccccc21,"inconclusive: 4.11 µM [falling, full curve, poor fit]",

# Compounds listed so far that have a thiophene ring, fused or not (four):
Compound,Potency,"lipid storage change, negative = inhibition"
Cc1csc2nc(SCC(=O)Nc3ccccc3F)[nH]c(=O)c12,,inconclusive: 5.78%
O=C(/C=C/c1cccs1)N1CCN(c2ccccc2)CC1,"inconclusive: 1.84 µM [falling, partial curve, poor fit]",
COCCOC(=O)c1c(NC(=O)CNCc2ccco2)sc(C(N)=O)c1C,,inconclusive: -3.51%
CCCn1c(=N)n(CC(=O)c2cccs2)c2ccccc21,,inconclusive: 26.4%
